Laboratory results reported in the supplement of paper PMC10060354, “Discovery of a small molecule ligand of FRS2 that inhibits invasion and tumor growth” (Cellular Oncology, 2022).
Repeats are few or missing, and single values can be far off.

Chains of the proteins cited; added tags and fusions are not shown. Lines headed by an entry give the natural chain unless they say otherwise; changes in a name come on top.
UniProt Q9NSI2: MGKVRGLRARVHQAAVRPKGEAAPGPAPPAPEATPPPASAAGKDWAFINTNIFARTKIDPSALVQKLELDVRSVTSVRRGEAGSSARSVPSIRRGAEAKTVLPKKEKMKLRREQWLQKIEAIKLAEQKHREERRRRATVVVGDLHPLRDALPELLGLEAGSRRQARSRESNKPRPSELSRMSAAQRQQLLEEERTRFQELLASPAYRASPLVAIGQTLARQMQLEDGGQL
UniProt P57076: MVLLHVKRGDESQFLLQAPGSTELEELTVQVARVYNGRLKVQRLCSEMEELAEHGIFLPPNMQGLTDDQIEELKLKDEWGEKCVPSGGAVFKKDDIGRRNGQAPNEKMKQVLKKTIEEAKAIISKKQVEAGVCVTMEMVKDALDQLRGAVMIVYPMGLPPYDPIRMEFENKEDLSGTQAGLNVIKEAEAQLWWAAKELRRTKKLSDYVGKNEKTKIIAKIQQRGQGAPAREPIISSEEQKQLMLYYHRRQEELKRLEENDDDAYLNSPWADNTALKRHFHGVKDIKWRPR
UniProt Q9UPT5: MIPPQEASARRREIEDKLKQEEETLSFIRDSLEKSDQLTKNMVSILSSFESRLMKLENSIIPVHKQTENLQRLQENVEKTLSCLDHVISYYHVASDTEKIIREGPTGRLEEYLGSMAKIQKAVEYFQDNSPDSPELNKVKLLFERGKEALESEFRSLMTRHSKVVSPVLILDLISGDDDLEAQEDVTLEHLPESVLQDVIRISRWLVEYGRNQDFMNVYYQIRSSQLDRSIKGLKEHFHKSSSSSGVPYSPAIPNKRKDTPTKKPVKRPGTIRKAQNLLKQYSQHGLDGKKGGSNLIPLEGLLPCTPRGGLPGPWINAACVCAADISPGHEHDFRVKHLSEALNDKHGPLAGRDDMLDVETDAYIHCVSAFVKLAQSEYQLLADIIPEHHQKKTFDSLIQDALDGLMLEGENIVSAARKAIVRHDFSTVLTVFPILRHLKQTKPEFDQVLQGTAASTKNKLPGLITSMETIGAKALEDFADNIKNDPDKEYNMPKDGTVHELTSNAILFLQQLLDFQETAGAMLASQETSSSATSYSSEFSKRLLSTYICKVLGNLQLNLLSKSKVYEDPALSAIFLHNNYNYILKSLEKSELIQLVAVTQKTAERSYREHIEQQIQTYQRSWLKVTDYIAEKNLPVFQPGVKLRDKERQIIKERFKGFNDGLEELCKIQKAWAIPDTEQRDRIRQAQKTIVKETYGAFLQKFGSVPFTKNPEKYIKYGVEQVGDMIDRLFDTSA
UniProt Q96EP5: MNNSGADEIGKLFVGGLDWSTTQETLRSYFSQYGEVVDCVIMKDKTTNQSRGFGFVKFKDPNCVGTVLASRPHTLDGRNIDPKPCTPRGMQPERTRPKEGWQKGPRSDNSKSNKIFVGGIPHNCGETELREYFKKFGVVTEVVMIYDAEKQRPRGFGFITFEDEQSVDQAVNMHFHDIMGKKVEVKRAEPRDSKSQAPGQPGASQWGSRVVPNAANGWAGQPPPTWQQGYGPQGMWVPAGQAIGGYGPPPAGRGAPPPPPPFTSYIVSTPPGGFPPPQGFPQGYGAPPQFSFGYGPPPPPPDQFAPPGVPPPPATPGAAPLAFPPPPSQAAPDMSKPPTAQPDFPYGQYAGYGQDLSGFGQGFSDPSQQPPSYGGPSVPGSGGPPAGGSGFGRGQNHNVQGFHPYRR
UniProt Q9UNN8: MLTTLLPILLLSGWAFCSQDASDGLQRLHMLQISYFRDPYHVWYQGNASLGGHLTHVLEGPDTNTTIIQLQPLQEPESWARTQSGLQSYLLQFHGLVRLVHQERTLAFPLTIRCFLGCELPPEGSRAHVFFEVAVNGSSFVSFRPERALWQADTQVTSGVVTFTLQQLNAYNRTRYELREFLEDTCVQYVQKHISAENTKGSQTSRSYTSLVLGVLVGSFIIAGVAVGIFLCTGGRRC
UniProt P08648, whole entry: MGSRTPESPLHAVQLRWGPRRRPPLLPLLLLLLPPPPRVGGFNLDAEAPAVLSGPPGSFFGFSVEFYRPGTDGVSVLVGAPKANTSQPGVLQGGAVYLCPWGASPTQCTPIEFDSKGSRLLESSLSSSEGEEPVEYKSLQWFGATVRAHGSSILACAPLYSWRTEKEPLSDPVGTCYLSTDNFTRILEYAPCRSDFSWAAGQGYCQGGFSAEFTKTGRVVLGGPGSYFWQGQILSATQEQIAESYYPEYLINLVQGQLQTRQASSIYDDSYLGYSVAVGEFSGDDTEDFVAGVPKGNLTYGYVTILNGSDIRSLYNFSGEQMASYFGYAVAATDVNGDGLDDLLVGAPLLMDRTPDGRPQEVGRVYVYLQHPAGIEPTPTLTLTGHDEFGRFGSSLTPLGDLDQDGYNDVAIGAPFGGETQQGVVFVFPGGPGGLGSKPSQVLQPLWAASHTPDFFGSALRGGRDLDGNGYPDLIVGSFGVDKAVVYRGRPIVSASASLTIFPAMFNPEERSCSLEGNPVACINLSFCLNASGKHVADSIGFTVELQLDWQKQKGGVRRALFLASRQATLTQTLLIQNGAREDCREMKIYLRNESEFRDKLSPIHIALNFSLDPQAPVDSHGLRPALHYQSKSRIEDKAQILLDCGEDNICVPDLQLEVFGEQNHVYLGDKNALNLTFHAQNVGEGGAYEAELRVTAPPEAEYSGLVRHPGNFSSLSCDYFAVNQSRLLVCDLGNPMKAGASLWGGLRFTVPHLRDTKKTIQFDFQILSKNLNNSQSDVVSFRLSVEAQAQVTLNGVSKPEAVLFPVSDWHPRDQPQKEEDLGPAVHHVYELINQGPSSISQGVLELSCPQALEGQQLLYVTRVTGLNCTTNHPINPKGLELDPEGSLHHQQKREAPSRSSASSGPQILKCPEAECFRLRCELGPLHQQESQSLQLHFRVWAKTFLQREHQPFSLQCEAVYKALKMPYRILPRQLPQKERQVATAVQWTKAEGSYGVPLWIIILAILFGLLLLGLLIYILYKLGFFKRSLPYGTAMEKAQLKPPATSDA
UniProt P06400: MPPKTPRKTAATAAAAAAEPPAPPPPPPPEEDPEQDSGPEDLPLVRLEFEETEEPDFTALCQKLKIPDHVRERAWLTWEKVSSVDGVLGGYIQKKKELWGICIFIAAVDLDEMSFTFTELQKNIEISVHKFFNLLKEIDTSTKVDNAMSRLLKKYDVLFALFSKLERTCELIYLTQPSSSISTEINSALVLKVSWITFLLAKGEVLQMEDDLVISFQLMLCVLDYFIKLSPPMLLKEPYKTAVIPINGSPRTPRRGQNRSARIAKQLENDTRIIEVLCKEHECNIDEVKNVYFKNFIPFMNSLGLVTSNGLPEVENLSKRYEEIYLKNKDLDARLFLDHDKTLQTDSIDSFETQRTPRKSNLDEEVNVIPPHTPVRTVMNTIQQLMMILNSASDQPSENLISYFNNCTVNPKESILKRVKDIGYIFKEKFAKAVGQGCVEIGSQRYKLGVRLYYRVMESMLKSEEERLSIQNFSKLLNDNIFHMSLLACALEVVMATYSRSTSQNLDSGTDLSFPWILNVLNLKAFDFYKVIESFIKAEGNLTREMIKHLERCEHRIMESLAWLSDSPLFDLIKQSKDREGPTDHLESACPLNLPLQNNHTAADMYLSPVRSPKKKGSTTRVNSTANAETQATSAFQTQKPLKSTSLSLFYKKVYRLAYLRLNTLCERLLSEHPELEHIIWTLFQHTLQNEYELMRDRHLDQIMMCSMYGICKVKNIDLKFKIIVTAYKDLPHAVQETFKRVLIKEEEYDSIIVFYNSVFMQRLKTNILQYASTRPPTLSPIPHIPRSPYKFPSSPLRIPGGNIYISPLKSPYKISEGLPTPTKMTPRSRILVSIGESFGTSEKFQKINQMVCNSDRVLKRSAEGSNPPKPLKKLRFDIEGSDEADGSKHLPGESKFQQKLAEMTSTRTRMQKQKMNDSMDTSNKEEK
UniProt Q10472: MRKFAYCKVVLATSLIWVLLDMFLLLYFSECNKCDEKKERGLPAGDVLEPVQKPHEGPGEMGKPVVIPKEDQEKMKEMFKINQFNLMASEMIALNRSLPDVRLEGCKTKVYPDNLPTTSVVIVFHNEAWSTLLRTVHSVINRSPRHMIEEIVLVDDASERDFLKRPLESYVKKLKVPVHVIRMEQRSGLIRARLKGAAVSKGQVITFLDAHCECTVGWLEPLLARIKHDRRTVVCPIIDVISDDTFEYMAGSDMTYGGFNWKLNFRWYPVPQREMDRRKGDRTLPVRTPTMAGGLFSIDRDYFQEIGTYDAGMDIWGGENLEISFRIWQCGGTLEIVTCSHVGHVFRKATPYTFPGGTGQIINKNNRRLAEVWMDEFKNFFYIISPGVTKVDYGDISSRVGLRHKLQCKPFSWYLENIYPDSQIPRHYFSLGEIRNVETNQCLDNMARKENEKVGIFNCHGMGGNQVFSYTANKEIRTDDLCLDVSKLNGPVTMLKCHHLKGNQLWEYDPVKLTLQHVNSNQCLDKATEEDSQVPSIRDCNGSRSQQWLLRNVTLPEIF
UniProt Q14409: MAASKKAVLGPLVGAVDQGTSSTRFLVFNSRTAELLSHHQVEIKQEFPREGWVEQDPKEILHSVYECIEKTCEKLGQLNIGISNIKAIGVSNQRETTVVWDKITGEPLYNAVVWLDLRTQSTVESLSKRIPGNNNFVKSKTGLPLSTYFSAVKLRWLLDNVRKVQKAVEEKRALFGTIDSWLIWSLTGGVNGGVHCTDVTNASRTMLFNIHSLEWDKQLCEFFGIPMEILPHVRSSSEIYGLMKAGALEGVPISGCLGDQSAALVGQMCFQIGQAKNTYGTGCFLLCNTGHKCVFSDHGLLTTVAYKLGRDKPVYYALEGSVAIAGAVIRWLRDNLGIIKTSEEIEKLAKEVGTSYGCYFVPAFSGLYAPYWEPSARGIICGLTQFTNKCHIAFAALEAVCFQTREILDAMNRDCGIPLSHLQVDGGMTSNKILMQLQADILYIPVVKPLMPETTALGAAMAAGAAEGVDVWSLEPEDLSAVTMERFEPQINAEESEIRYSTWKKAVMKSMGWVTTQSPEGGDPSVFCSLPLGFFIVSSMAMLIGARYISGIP
UniProt P24311, whole entry: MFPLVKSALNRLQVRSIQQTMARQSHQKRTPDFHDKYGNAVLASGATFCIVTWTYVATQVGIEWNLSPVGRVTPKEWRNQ
UniProt O00567: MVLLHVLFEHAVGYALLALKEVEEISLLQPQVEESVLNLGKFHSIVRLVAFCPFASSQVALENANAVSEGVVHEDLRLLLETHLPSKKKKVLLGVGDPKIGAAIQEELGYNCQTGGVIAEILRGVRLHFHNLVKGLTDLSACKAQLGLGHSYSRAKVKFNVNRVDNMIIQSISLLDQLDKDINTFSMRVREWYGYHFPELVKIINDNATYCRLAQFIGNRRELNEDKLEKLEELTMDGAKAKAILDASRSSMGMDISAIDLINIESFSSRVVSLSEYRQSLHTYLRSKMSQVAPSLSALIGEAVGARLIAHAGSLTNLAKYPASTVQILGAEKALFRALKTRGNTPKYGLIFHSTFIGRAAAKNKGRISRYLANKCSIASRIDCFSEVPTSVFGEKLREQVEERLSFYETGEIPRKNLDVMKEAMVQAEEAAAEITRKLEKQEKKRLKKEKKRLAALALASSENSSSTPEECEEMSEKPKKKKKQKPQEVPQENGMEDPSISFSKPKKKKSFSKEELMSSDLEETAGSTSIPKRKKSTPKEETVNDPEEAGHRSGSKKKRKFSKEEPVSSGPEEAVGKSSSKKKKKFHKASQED
UniProt P62820, whole entry: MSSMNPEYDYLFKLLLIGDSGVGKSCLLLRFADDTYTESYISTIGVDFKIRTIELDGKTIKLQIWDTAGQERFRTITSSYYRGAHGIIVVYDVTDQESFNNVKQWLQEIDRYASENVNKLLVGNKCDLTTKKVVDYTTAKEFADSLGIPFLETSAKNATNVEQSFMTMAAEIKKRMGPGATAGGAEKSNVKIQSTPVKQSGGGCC
UniProt Q7Z417: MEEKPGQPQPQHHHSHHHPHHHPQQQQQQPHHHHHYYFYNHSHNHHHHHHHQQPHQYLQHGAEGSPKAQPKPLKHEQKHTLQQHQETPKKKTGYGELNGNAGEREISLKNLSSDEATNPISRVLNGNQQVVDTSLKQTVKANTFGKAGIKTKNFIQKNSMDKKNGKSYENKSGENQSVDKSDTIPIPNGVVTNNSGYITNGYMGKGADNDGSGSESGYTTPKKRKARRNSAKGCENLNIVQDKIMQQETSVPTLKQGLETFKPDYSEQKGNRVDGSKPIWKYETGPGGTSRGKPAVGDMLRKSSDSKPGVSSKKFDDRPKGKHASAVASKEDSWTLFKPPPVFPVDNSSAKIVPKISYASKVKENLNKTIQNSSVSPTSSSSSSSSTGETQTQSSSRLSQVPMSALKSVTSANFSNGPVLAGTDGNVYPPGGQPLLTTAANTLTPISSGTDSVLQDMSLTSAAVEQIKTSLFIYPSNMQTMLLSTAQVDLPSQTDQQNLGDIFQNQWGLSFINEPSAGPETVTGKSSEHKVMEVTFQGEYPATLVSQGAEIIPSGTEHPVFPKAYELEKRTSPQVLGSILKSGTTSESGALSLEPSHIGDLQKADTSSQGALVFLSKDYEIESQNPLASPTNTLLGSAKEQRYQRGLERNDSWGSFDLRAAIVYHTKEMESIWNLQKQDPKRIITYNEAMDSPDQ

Compound: [O-][N+](C(C1=C(C(O)=C2)NC(C(C=C3)=CC=C3Cl)C4C1C=CC4)=C2Cl)=O
Assay: melting temperature shift (compound 7 minus DMSO); higher = compound stabilises the protein
Details: 10 µM
Experimental: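 Thermal proteome profiling (TMT mass spectrometry) in intact DAOY medulloblastoma cells or DAOY lysates treated with 10 µM compound 7 or DMSO, heated at 10 temperatures from 40.5 to 73.8 °C for 3 min. Melting curves were fitted with the Bioconductor TPP package, and the melting point difference between compound and vehicle is reported per protein (single curve per condition).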

[1] = system: DAOY cell lysate, treatment time: 20 min, 4 °C
[2] = system: intact DAOY cells, treatment time: 90 min, 37 °C

| Target | melting temperature shift [1] [°C] | melting temperature shift [2] [°C] |
| --- | --- | --- |
| GART (UniProt P22102) | -0.583 | 0.326 |
| FAM207A (UniProt Q9NSI2) | -0.333 | 0.991 |
| SLMAP (UniProt Q14BN4) | 1.23 | -0.0974 |
| UniProt O14543 |  | -1.69 |
| CERCAM (UniProt Q5T4B2) |  | 3.76 |
| ASF1A (UniProt Q9Y294) | -0.805 | 1.15 |
| UniProt Q6ZQQ6 | -1.23 | -1.25 |
| SLC25A3 (UniProt Q00325) | 1.72 | -0.485 |
| CTSB (UniProt P07858) | -0.0369 | -1.38 |
| PDZD11 (UniProt Q5EBL8) | -0.144 | 0.0407 |
| RPS10 (UniProt P46783) | -0.0898 | -0.461 |
| PRKACB (UniProt P22694) | 0.378 | -0.481 |
| CCDC86 (UniProt Q9H6F5) | 0.281 | -0.781 |
| SH3BP5L (UniProt Q7L8J4) | 1.12 | -1.24 |
| NRBF2 (UniProt Q96F24) | -0.653 | 0.251 |
| C21ORF59 (UniProt P57076) | -0.33 | 1.2 |
| UniProt Q9HAA7 | 1.19 | -1.87 |
| UniProt O95416 | -0.283 |  |
| EXOC7 (UniProt Q9UPT5) | 0.299 | -0.934 |
| EIF2A (UniProt Q9BY44) | 0.126 | 0.152 |
| DAZAP1 (UniProt Q96EP5) | 0.436 | 0.482 |
| MRPS35 (UniProt P82673) | 0.681 | -1.21 |
| UniProt Q8N8J7 | 0.791 |  |

Another view of some results above:
Target,melting temperature shift [1] [°C],melting temperature shift [2] [°C]
UniProt O95416,-0.283,
EXOC7 (UniProt Q9UPT5),0.299,-0.934
EIF2A (UniProt Q9BY44),0.126,0.152

Later entries.

| Target | melting temperature shift [1] [°C] | melting temperature shift [2] [°C] |
| --- | --- | --- |
| UniProt P56282 | 0.253 |  |
| CAMK1 (UniProt Q14012) |  | -1.05 |
| PTGES3 (UniProt Q15185) | -0.177 | 0.104 |
| C10ORF76 (UniProt Q5T2E6) | -2.33 | -0.267 |
| FXR2 (UniProt P51116) | 0.911 | 0.57 |
| ZNF384 (UniProt Q8TF68) | 1.22 | -0.112 |
| LRRC57 (UniProt Q8N9N7) | 0.27 | 0.112 |
| QTRT1 (UniProt Q9BXR0) | -2.32 | -0.148 |
| IARS2 (UniProt Q9NSE4) | 0.545 | -0.693 |
| PROCR (UniProt Q9UNN8) | 0.84 | -0.535 |
| RPL18 (UniProt Q07020) | 0.138 | -0.319 |
| TMCO1 (UniProt Q9UM00) | 1.46 | 0.329 |
| ITGA5 (UniProt P08648) | 1.81 |  |
| RB1 (UniProt P06400) | -1.43 | -0.93 |
| UniProt Q9UH03 |  | -0.0976 |
| UniProt Q96CB8 | -0.45 | 0.149 |
| KIRREL (UniProt Q96J84) | 0.238 |  |
| GALNT1 (UniProt Q10472) | 2.7 |  |
| PGAM1 (UniProt P18669) |  | -1.6 |
| NDC80 (UniProt O14777) | -0.618 | -1.38 |
| SEH1L (UniProt Q96EE3) | 0.595 | -0.0516 |
| UniProt Q16877 |  | 2.45 |
| PHKA1 (UniProt P46020) | -0.385 | -0.367 |

| Target | melting temperature shift [1] [°C] | melting temperature shift [2] [°C] |
| --- | --- | --- |
| UniProt P98175 | 0.304 | -1.25 |
| ALG11 (UniProt Q2TAA5) |  | -1.08 |
| TXN2 (UniProt Q99757) | 2.24 | 0.737 |
| AP5Z1 (UniProt O43299) | -0.91 | -0.38 |
| GRHPR (UniProt Q9UBQ7) | -0.109 | -0.757 |
| FAM49B (UniProt Q9NUQ9) | -0.55 | -0.626 |
| CRK (UniProt P46108) | -0.678 | 0.00319 |
| CDK5RAP1 (UniProt Q96SZ6) | -1.89 | 1.82 |
| SCYL1 (UniProt Q96KG9) | -0.567 | -0.585 |
| UniProt Q14409 |  | -1.14 |
| PHLDB1 (UniProt Q86UU1) | 0.281 | -2.18 |
| TRIO (UniProt O75962) | -0.374 | -0.583 |
| SNF8 (UniProt Q96H20) | -1.92 | 0.0188 |
| CTPS2 (UniProt Q9NRF8) | -1.02 | -0.504 |
| COX7B (UniProt P24311) | 0.812 | 1.57 |
| GPALPP1 (UniProt Q8IXQ4) | 6.83 |  |
| NOP56 (UniProt O00567) | 0.994 |  |
| UBLCP1 (UniProt Q8WVY7) | -0.517 | 0.0796 |
| WLS (UniProt Q5T9L3) | 0.17 | -0.843 |
| SYVN1 (UniProt Q86TM6) | -0.323 | -1.23 |
| UniProt Q6DHV7 |  | -3.55 |
| EXOSC8 (UniProt Q96B26) | 0.0522 | -0.607 |
| NSUN4 (UniProt Q96CB9) |  | 1.84 |

| Target | melting temperature shift [1] [°C] | melting temperature shift [2] [°C] |
| --- | --- | --- |
| EIF5 (UniProt P55010) | 0.191 | -0.643 |
| UniProt Q6R2W3 |  | -0.343 |
| CHMP1A (UniProt Q9HD42) | -2.77 | 0.252 |
| RPL11 (UniProt P62913) | 0.113 | -1.09 |
| MRPL10 (UniProt Q7Z7H8) | 2.99 |  |
| SCARB2 (UniProt Q14108) | 4.02 |  |
| SGTB (UniProt Q96EQ0) | -1.43 | -1.01 |
| SEL1L (UniProt Q9UBV2) | 1.42 | -0.652 |
| EMG1 (UniProt Q92979) | -0.0779 | 0.44 |
| SRSF7 (UniProt Q16629) | 1.37 | 0.599 |
| UniProt Q460N5 | -0.59 | 3.9 |
| HK2 (UniProt P52789) | -0.024 | -0.624 |
| NXN (UniProt Q6DKJ4) | -0.699 | -0.0642 |
| PELP1 (UniProt Q8IZL8) | -0.116 | 0.0634 |
| EED (UniProt O75530) | 0.508 | 0.0224 |
| SLC29A1 (UniProt Q99808) | 3.74 | -1.38 |
| ZMIZ2 (UniProt Q8NF64) | -3.31 | 1.87 |
| GFPT2 (UniProt O94808) | -0.73 | 1.37 |
| NPC1 (UniProt O15118) | 0.31 | -0.187 |
| CCDC93 (UniProt Q567U6) | -0.684 | -0.207 |
| CPT2 (UniProt P23786) | -0.0322 | -0.438 |
| ECE1 (UniProt P42892) | -0.111 | -0.815 |
| UniProt Q8N878 |  | 0.521 |

| Target | melting temperature shift [1] [°C] | melting temperature shift [2] [°C] |
| --- | --- | --- |
| PPFIA1 (UniProt Q13136) | -1.15 | -0.968 |
| CASP2 (UniProt P42575) | 0.244 |  |
| PUS7L (UniProt Q9H0K6) | -0.335 | -0.472 |
| PPP2R5A (UniProt Q15172) | 2.41 |  |
| UniProt P0C2W7 |  | -0.424 |
| UniProt Q9Y575 | -2.87 |  |
| HACL1 (UniProt Q9UJ83) | 1.86 | -0.335 |
| RAB1A (UniProt P62820) | 0.717 |  |
| TUBGCP4 (UniProt Q9UGJ1) | 0.111 |  |
| AAGAB (UniProt Q6PD74) | -0.239 | -0.677 |
| TXNRD2 (UniProt Q9NNW7) | 0.671 | 7.41 |
| GOLM1 (UniProt Q8NBJ4) | 0.733 |  |
| UniProt Q02338 | 0.799 | 0.963 |
| NUFIP2 (UniProt Q7Z417) | -0.146 | 0.929 |
| SLC39A7 (UniProt Q92504) | 3.03 | -3.24 |
| C20ORF24 (UniProt Q9BUV8) | -0.371 |  |
| ATRIP (UniProt Q8WXE1) | 1.52 | 0.0796 |
| RPS7 (UniProt P62081) | 0.562 | -0.679 |
| FLNC (UniProt Q14315) | -1.16 | 0.137 |

Laid out differently: entries from further up.
Target	melting temperature shift [1] [°C]	melting temperature shift [2] [°C]
PPFIA1 (UniProt Q13136)	-1.15	-0.968
PPP2R5A (UniProt Q15172)	2.41	
RAB1A (UniProt P62820)	0.717	
GOLM1 (UniProt Q8NBJ4)	0.733	
FLNC (UniProt Q14315)	-1.16	0.137
